Test results: US11311624B2, “Inhibitors of MEK/PI3K, JAK/MEK, JAK/PI3K/mTOR and MEK/PI3K/mTOR biological pathways and methods for improving lymphatic uptake, bioavailability, and solubility of therapeutic compounds” (THE REGENTS OF THE UNIVERSITY OF MICHIGAN, priority 2017, dated 2022)
Entries after “also recorded” stand apart in the source; their conditions may differ. The name of at least one read-out is uncertain. Some entries repeat one wording, which the source may state once for all of them.

Assay: Solubilization in Maisine excipient
Assay type: physicochemical
[1] = 10 mg of compound in 200 micro-liters of Maisine

SMILES	solubilization in Maisine [1]	solubilization in Maisine (8 mg/200 microliters)
O=C(NCCOCCOCCOCCNC(=O)c1ccccc1)c1ccccc1 [Compound 1]	completely solubilized	
O=C(NCCCCCCCCCCCNC(=O)c1ccccc1)c1ccccc1 [Compound 2]	incompletely solubilized; also recorded: not completely solubilized	
O=C(NCCOCCOCCOCCNC(=O)c1cccc2ccccc12)c1cccc2ccccc12 [Compound 3]	completely solubilized	
O=C(NCCCCCCCCCCCNC(=O)c1cccc2ccccc12)c1cccc2ccccc12 [Compound 4]	incompletely solubilized; also recorded: not completely solubilized	
O=C(NOCCOCCOCCOCCC(=O)N1CCN(c2nc(N3CCOCC3)nc(-n3c(C(F)F)nc4ccccc43)n2)CC1)c1ccc(F)c(F)c1Nc1ccc(I)cc1F [ST-168]		completely solubilized
